Source: the supplement of paper PMC10338343
± gives the standard deviation. The list shows a part of the results, in another mix than the full data. The uncertainty is large for many entries. Some of the results follow.

Each sequence was assayed on MIWI (PIWIL1) piRISC loaded with L1MC piRNA (30 nt) (assay: pre-steady-state target cleavage rate (min^-1); higher = faster piRNA-guided slicing of the target). Settings: guide: L1MC piRNA 5'p-UAACUAAAUACUAUGCAAGCUGUAGGUCCU; auxiliary factor: none (no GTSF1).
How it was run: (§1)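 Active affinity-purified piRISC (1 nM) loaded with one synthetic guide was mixed with a transcribed, DNA-blocked target RNA library (0.1 nM), with or without 500 nM GTSF1 partner protein, in HEPES–potassium acetate buffer at 33 °C for 0–8 or 0–960 min. Uncleaved targets were sequenced, normalised to depth and to weakly complementary targets, and pooled across three trials, with k3 capped at 0.0001 min^-1. The pre-steady-state cleavage rate was determined with a burst-and-steady-state fit.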
In the case of UCCUGGAUGAGCUUCCAUAGUAUUUAGUAA, the “pre-steady-state target cleavage rate” value is reported as 0.00138 ± 0.0055.
UCCUCCUACAGCUUGCAUACAUUUUACAAA was tested, and the “pre-steady-state target cleavage rate” value was 0.000806 ± 0.0094.
For UCCUGGAUCAGCUUGGUAAGUAUUUAGAAA, the “pre-steady-state target cleavage rate” value was 0.000967 ± 0.0088.
With UCCUGGAUGUCGAUGCAUAGUAUUUACUAA the “pre-steady-state target cleavage rate” value was 0.00101 ± 0.0078.
For UCCUGGAUGUCCUUGCAUAGUUAAUAGUUA, the “pre-steady-state target cleavage rate” value was 0.00178 ± 0.0033.
In the case of UCCUGGAACUCGUUGCAUAGUAUUUUCAAA, the “pre-steady-state target cleavage rate” value is reported as 0.000973 ± 0.0058.
For UCCUGGAUGUCCUUGCAUAGUAUUUAGAAA, the “pre-steady-state target cleavage rate” value was 0.00145 ± 0.0061.
For UCCUGGAUCAGGAUGCAUAGUAUUUUCAAA, the “pre-steady-state target cleavage rate” value was 0.000637 ± 0.0069.
In the case of UCCUGGAUGUCGAUGCAUAGUAUAUAGUAA, the “pre-steady-state target cleavage rate” value is reported as 0.00053 ± 0.014.
For UCCUGGAACAGCUUGCAUAGAUAUUACAAA, the “pre-steady-state target cleavage rate” value was 0.000797 ± 0.01.
In the case of UCCUGGAUGUCCUUGCAUUGUAUUUACUUA, the “pre-steady-state target cleavage rate” value is reported as 0.00114 ± 0.0061.
In the case of UCCUCCUACAGCUUGCAUAGUAUAUUCAAA, the “pre-steady-state target cleavage rate” value is reported as 0.000309 ± 0.0066.
UCCUGCUACAGCUUGCAUAGUAAAUUCAAA was tested, and the “pre-steady-state target cleavage rate” value was 0.000708 ± 0.0089.
In the case of “UCCUGGUACAGCUUGCAUUCAUAAAUCAAA [g13:g24:cont:t1A]”, the “pre-steady-state target cleavage rate” value is reported as 0.000834 ± 0.0093.
UCCUGGAUGACGUUGCAUAGUAUUUAGUAA was tested, and the “pre-steady-state target cleavage rate” value was 0.00268 ± 0.003.

These sequences were tested on EfPiwi piRISC loaded with L1MC piRNA (26 nt) (assay: pre-steady-state target cleavage rate (min^-1); guide: L1MC piRNA 5'p-UAACUAAAUACUAUGCAAGCUGUAGG; MIWI and MILI are mouse PIWI proteins and EfPiwi is from a freshwater sponge; tags in brackets are library labels; higher = faster piRNA-guided slicing of the target). Settings: auxiliary factor: 500 nM Ephydatia muelleri Gtsf1.
How it was run: as §1
In the case of UCCUGGAUGUCCUUGCAUAGUAUUAUGUAA, the “pre-steady-state target cleavage rate” value is reported as 0.00104 ± 0.0068.
In the case of UCCUGCUACAGCUUCGAUAGUAUUUACAAA, the “pre-steady-state target cleavage rate” value is reported as 0.00214 ± 0.0025.
In the case of UCCUGGAUCUCCUUGCAUAGUAUUUUCAAA, the “pre-steady-state target cleavage rate” value is reported as 0.000701 ± 0.0082.
For UCCUGGAUGUGCUUGCAUAGUAUUAUCUUA, the “pre-steady-state target cleavage rate” value was 0.00199 ± 0.0059.
In the case of UCCUCCUACAGCUUGCAUAGUAAUUUCAAA, the “pre-steady-state target cleavage rate” value is reported as 0.00321 ± 0.0026.
For UCCUGGUACAGCUUGCAUACAUUUUAGAAA, the “pre-steady-state target cleavage rate” value was 0.000305 ± 0.012.
With UCCUGGAUCAGCUUCCAUAGAAUUUAGUUA the “pre-steady-state target cleavage rate” value was 0.000563 ± 0.0052.
In the case of UCCUCCUACAGCUUGCUAUAGUAUUUAGUUA, the “pre-steady-state target cleavage rate” value is reported as 0.00859 ± 0.0032.
In the case of UCCUGGUACAGCUUGCAUUCAAUUUUCAAA, the “pre-steady-state target cleavage rate” value is reported as 0.000796 ± 0.008.
In the case of UCCUCCUACAGCUUGCAUUCAAUUUAGAAA, the “pre-steady-state target cleavage rate” value is reported as 0.00153 ± 0.0041.
UCCUGGAUGUCGUUGCAUAGUUUAUAGUUA was tested, and the “pre-steady-state target cleavage rate” value was 0.000676 ± 0.0095.
In the case of UCCUGGUAGUGCUUGCAUAGUAUUUUCAAA, the “pre-steady-state target cleavage rate” value is reported as 0.00143 ± 0.0039.
For UCCUGCUACUCGUUGCAUAGUAUUUACAAA, the “pre-steady-state target cleavage rate” value was 0.00087 ± 0.0062.
With UCCUGGAACAGCUUCGUUAGUAUUUACAAA the “pre-steady-state target cleavage rate” value was 0.000286 ± 0.012.
In the case of UCCUCCUACUCGUUGCAUAGUAUUUAGAAA, the “pre-steady-state target cleavage rate” value is reported as 0.004 ± 0.0035.
In the case of UCCUGGAUGUCGUUGCAUACUAUUUAGUAA, the “pre-steady-state target cleavage rate” value is reported as 0.000421 ± 0.0061.
In the case of UCCUGGAUGUGCUUCCAUAGUAUUUAGUAA, the “pre-steady-state target cleavage rate” value is reported as 0.00486 ± 0.003.
UCCUGGAUCAGCAACCAUAGUAUUUAGUAA was tested, and the “pre-steady-state target cleavage rate” value was 0.000441 ± 0.0078.
UCCUGGAUCAGCAAGCAUAGUAUUUACAAA was tested, and the “pre-steady-state target cleavage rate” value was 0.000607 ± 0.0043.
With UCCUCCUACAGCUUGCAUAGUAAUAAGUUA the “pre-steady-state target cleavage rate” value was 0.0073 ± 0.004.
UCCUGGAUCAGCUUCGAUAGUAUUUAGAAA was tested, and the “pre-steady-state target cleavage rate” value was 0.00107 ± 0.005.
For UCCUGGAUGUCCUAGCAUUGUAUUUAGUUA, the “pre-steady-state target cleavage rate” value was 0.00231 ± 0.0053.
In the case of UCCUGGUACAGCAACCAUAGUAUUUAGAAA, the “pre-steady-state target cleavage rate” value is reported as 0.000654 ± 0.0072.
For UCCUGGAUGAGCUUCCAUAGUAUUUAGUAA, the “pre-steady-state target cleavage rate” value was 0.00253 ± 0.0019.
With UCCUGGAUGUCGAACGUAUGUAUUUUAGUUA the “pre-steady-state target cleavage rate” value was less than 0.0001.
For UCCUCCUACAGCUUGCAUACAUUUUACAAA, the “pre-steady-state target cleavage rate” value was 0.0011 ± 0.0072.
For UCCUGGAUCAGCUUGGUAAGUAUUUAGAAA, the “pre-steady-state target cleavage rate” value was 0.000338 ± 0.0084.
UCCUGGAUGUCGAUGCAUAGUAUUUACUAA was tested, and the “pre-steady-state target cleavage rate” value was 0.00224 ± 0.004.
For UCCUGGAUGUCCUUGCAUAGUUAAUAGUUA, the “pre-steady-state target cleavage rate” value was 0.00121 ± 0.0062.
In the case of UCCUGGAACUCGUUGCAUAGUAUUUUCAAA, the “pre-steady-state target cleavage rate” value is reported as 0.00079 ± 0.0085.
With UCCUGGAUGUCCUUGCAUAGUAUUUAGAAA the “pre-steady-state target cleavage rate” value was 0.00278 ± 0.0022.
In the case of UCCUGGAUCAGGAUGCAUAGUAUUUUCAAA, the “pre-steady-state target cleavage rate” value is reported as 0.00047 ± 0.0059.
For UCCUGGAUGUCGAUGCAUAGUAUAUAGUAA, the “pre-steady-state target cleavage rate” value was 0.00019 ± 0.025.
In the case of UCCUGGAACAGCUUGCAUAGAUAUUACAAA, the “pre-steady-state target cleavage rate” value is reported as 0.000356 ± 0.011.
For UCCUGGAUGUCCUUGCAUUGUAUUUACUUA, the “pre-steady-state target cleavage rate” value was 0.000527 ± 0.011.
In the case of UCCUCCUACAGCUUGCAUAGUAUAUUCAAA, the “pre-steady-state target cleavage rate” value is reported as 0.00316 ± 0.0027.
In the case of UCCUGCUACAGCUUGCAUAGUAAAUUCAAA, the “pre-steady-state target cleavage rate” value is reported as 0.00184 ± 0.0023.
With “UCCUGGUACAGCUUGCAUUCAUAAAUCAAA [g13:g24:cont:t1A]” the “pre-steady-state target cleavage rate” value was 0.000216 ± 0.019.
With UCCUGGAUGACGUUGCAUAGUAUUUAGUAA the “pre-steady-state target cleavage rate” value was 0.00296 ± 0.0042.
